The nature of the test: qHTS Assay for Modulators of Lamin A Splicing. The note with it: HeLa LMNA splicing GFP/RFP minigene ratio, 48 h. The method, boiled down: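 Read-out is the ratio of GFP to DsRed2 object intensity, acquired by 488 nm laser-scanning cytometry on HeLa lamin A-EGFP minigene reporter cells. Compound incubation 48 hrs at 37 °C in Opti-MEM with 2% FBS; DMSO 0.5% final.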
(In general: In qHTS, concentration-response curves come from the screen itself.)

Setting [1] is: measured here: GFP splicing reporter channel.
Where [2] appears, read: measured here: RFP viability control channel.

SMILES strings stand for the structures. Some of the results follow. These are further read-outs of the screen, such as a control signal, another cell line or another target. No call is given for them. Compounds called inactive in the main read-out are mostly missing here. Words in brackets tell the shape of the fitted curve; partial curves, single points and poor fits give uncertain potencies.

Usually AC50 stands for the concentration at which the activity in the assay is half-maximal. For `CCn1nc(C(=O)Nc2ccc(S(=O)(=O)Nc3ncccn3)cc2)c2ccccc2c1=O`, the AC50 under setting [1] is 0.447 µM [falling, partial curve]. For the compound `Cc1c(Cl)cccc1NC(=O)Cn1cccc1`, the AC50 under setting [2] is 0.631 µM [falling, partial curve, poor fit]. The same measure, in the same setting: the same measure for `CCc1[nH]nc2c1C(C(C)C)C(C#N)=C(N)O2` (stereo not drawn): 15.8 µM [rising, partial curve]. `Brc1ccc(CSc2nnc(-c3ccccn3)n2Cc2ccco2)cc1`: the AC50 by setting is: under setting [1], 35.5 µM [rising, single point]; under setting [2], 35.5 µM [rising, single point]. As to `Cn1c(CSc2nc3ccccc3s2)nnc1SCC(=O)NCCCN1CCOCC1`, the AC50 under setting [2] was 5.62 µM [rising, single point].

In the case of `CCn1nc(C)c(NC(=O)c2cc(Br)ccc2Cl)c1C`, the AC50 runs as follows: under setting [1], 4.47 µM [falling, partial curve]; under setting [2], 3.98 µM [falling, partial curve, poor fit]. On to `CCN(CC)C(=S)SCC(=O)Nc1nc(-c2ccccc2)c(-c2ccccc2)o1`, for which, under setting [2], the concentration at half-maximal activity (AC50) is 11.2 µM [rising, partial curve]. Consider `CCOc1ccc(NC(=S)N(CCc2c(C)[nH]c3ccc(C)cc23)Cc2ccncc2)cc1`, for which the AC50 runs as follows: under setting [1], 10 µM [rising, partial curve]; under setting [2], 11.2 µM [rising, partial curve]. As to `CCn1cc(CN2CCN(Cc3ccsc3)C(CCO)C2)cn1` (stereo not drawn), the AC50 under setting [2] is 0.00316 µM [falling, full curve, poor fit]. Turning to `CCC(CC)c1nnc(NC(=O)c2c(C)nn(Cc3ccccc3Cl)c2C)s1`, the AC50 reads like this: under setting [1], 17.8 µM [rising, partial curve, poor fit]; under setting [2], 20 µM [rising, partial curve, poor fit].

For `CC(=O)Cn1nnc2sc3c(c2c1=O)CCC(C(C)(C)C)C3` (stereo not drawn), the concentration at half-maximal activity (AC50) under setting [1] was 0.0447 µM [rising, full curve]. `O=C(Cn1c2ccc(F)cc2c2nc3n(c(=O)c21)CCS3)Nc1ccccc1F`: the AC50 runs as follows: under setting [1], 10 µM [falling, partial curve]; under setting [2], 11.2 µM [falling, single point]. For the compound `Cc1cc(C)cc(N2CC(O)=C(c3nc4ccccc4c(=O)[nH]3)C2=N)c1`, the AC50 under setting [2] was 35.5 µM [falling, single point]. For `COc1cc(S(=O)(=O)N2CCOCC2)ccc1NC(=O)CSc1n[nH]c(=O)[nH]c1=O`, the half-maximal activity concentration (AC50) under setting [2] is 3.55 µM [rising, single point].

As to `CCC(CC)C1=NN2C(=N)/C(=C\c3cc(C)n(-c4cccc(C)c4)c3C)C(=O)N=C2S1`, under setting [2], the AC50 is 12.6 µM [rising, partial curve]. Take `CC(C)(C)C(=O)NC(=S)NNC(=O)c1sc2ccccc2c1Cl`: the AC50 under setting [1] was 12.6 µM [falling, partial curve]. With `Cc1ccc(/C=C/C(=O)Nc2sc(C)c(C)c2C(=O)OC(C)C)o1`, under setting [2], the AC50 is 2.82 µM [rising, full curve]. For the compound `O=C1CN(/N=C/c2ccc(-c3ccc([N+](=O)[O-])cc3)o2)C(=O)N1`, the AC50 was 6.31 µM [rising, single point] under setting [1] and 6.31 µM [rising, single point] under setting [2]. On to `CCN(CC)S(=O)(=O)c1cccc(-c2nnc(SC(C)C(=O)NCCC3=CCCCC3)o2)c1` (stereo not drawn), for which the AC50 under setting [2] was 35.5 µM [rising, single point]. Consider `CN1CCC(=NNC(=O)CN(c2ccc(Oc3ccccc3)cc2)S(C)(=O)=O)CC1`, for which the AC50 under setting [2] was 28.2 µM [rising, partial curve, poor fit]. The same measure, in the same setting: then `Cc1ccc(C)c(C(=O)Cn2ncc(Cl)c(Cl)c2=O)c1`, with 11.2 µM [falling, partial curve]. With `COc1ccc(-c2cc(-c3ccc(N)cc3)nc(N)c2C#N)cc1OC`, the AC50 under setting [1] is 28.2 µM [falling, partial curve, poor fit]. Regarding `Cc1ccc(C(=O)CC(=O)COc2ccc(Cl)cc2)cc1`, the AC50 under setting [2] was 12.6 µM [rising, single point].

As for `COC(=O)c1ccc(NC(=O)CSc2nnc(COc3ccc4c(c3)CCCC4)o2)cc1`, the AC50 under setting [2] was 0.00501 µM [falling, full curve, poor fit]. Consider `COc1ccc(C(=O)C[n+]2ccc3c(c2)nc(-c2ccccc2)n3C)cc1`, for which the AC50 under setting [1] was 12.6 µM [rising, partial curve] and the AC50 under setting [2] is 17.8 µM [rising, partial curve].

For the compound `Cc1c(NC(=O)OCCSc2nc(N(C)C)nc(N(C)C)n2)sc(=S)n1C`, the AC50 is, setting by setting: under setting [1], 20 µM [rising, single point]; under setting [2], 31.6 µM [rising, single point]. In the case of `COc1ccc(OC)c(NC(=O)CSC2=C(C#N)C(c3ccco3)C3=C(CCCC3=O)N2)c1` (stereo not drawn), the AC50 under setting [2] was 35.5 µM [rising, single point]. Same read-out and setting: the same measure for `O=C(CNCc1cccnc1)Nc1cc(C(F)(F)F)ccc1N1CCOCC1`: 0.0112 µM [falling, full curve, poor fit].

`Cc1csc(SCC(=O)Nc2sc3c(c2C#N)CCC3)n1`: the AC50 by setting is: under setting [1], 35.5 µM [rising, single point]; under setting [2], 35.5 µM [rising, single point]. `Cc1ccccc1-n1nnnc1SCc1ncc(-c2ccccc2)o1`: the AC50 under setting [2] is 11.2 µM [rising, single point]. With `CC1(C)NC(=O)N(CCCCOc2cccc(C(F)(F)F)c2)C1=O`, the AC50 runs as follows: under setting [1], 12.6 µM [rising, single point]; under setting [2], 14.1 µM [rising, single point]. With `c1nc(N2CCC3(CC2)OCCO3)c2c3c(sc2n1)CCCC3`, under setting [2], the AC50 is 14.1 µM [rising, partial curve]. Still for that read-out and setting: then `CCCCCCCNC1=CC(=O)CC(c2ccccc2)C1` (stereo not drawn), with 20 µM [rising, single point].

With `Cc1[nH]nc2ncc(C(=O)c3ccccc3O)cc12`, under setting [1], the AC50 is 8.91 µM [rising, partial curve]. As to `Cc1ccc(NC(=S)NN(C)c2cc(C)nc(C)n2)cc1`, the half-maximal activity concentration (AC50) is, setting by setting: under setting [1], 35.5 µM [rising, single point]; under setting [2], 31.6 µM [rising, single point]. As for `CCOC(=O)CSc1c(-c2cccs2)[nH]c2ccccc12`, the AC50 by setting is: under setting [1], 14.1 µM [rising, partial curve]; under setting [2], 22.4 µM [rising, single point].

These data come from PubChem BioAssay AID1487 (National Center for Advancing Translational Sciences (NCATS), 2009).
